Experiment in all cases: co-IP
For assay [1], the target named is RALY (human (endogenous in HeLa)) (UniProt Q9UKM9).
The target in assay [2] is hnRNP-C (human (endogenous in HeLa)) (UniProt P07910).
Assay [3] concerns the target Adenovirus serotype 5 (Ad5) E1B55K (Adenovirus serotype 5 (Ad5)) (UniProt P03243).

The chains behind the UniProt entries cited, without tags or fusion partners.
UniProt Q9UKM9, whole entry: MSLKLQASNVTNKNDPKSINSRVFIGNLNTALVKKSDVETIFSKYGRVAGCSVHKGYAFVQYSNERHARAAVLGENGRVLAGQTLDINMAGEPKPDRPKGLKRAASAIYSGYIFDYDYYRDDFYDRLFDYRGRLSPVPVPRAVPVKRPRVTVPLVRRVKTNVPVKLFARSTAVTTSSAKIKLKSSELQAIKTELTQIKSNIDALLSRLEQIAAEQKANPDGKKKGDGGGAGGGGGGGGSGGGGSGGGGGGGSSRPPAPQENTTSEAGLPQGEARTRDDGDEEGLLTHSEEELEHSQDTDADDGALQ
UniProt P07910, whole entry: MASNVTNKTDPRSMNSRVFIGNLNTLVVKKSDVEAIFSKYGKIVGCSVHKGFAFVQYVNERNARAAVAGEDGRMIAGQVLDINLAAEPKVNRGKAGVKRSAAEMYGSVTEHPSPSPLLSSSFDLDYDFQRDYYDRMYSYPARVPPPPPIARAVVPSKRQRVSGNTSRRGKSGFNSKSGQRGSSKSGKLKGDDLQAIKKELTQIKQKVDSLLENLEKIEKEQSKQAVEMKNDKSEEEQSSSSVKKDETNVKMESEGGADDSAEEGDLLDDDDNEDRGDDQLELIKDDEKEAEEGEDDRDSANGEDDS
UniProt P03243, whole entry: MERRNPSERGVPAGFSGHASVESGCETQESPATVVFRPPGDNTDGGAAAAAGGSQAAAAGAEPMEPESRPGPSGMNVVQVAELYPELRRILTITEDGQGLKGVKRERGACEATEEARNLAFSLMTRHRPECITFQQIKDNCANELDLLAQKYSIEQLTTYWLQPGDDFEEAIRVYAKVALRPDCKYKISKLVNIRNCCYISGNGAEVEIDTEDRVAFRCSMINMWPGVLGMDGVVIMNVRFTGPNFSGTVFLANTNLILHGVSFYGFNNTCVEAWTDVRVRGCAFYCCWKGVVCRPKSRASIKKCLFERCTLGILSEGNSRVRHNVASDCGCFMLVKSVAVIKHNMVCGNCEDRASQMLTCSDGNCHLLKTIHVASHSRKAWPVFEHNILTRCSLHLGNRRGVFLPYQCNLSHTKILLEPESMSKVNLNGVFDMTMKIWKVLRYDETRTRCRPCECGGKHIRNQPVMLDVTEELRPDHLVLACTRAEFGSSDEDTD
UniProt P03265, whole entry: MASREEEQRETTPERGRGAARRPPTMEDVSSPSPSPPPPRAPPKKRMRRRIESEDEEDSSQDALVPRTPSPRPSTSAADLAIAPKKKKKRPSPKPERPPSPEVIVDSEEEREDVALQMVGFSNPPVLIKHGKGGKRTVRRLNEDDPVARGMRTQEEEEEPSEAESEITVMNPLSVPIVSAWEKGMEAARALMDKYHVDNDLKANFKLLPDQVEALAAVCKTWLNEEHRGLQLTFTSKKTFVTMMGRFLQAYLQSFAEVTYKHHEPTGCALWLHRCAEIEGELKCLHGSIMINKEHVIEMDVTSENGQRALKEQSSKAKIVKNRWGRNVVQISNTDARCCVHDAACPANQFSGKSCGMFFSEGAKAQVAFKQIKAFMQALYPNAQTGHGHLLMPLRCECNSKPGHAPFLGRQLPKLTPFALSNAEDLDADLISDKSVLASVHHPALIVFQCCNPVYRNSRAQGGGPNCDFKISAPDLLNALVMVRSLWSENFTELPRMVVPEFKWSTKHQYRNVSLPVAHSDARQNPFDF

No constants are given. Whether binding was seen depends on the method and setting. Binding seen in cells or lysates may run through a third protein. Some binding calls cover weakened binding; strength is not graded here.

“Adenovirus serotype 5 (Ad5) E1B55K (from UniProt P03243 1-496)”: the binding result in assay [1] and in assay [2] was “binds” throughout.

On to RALY (from UniProt Q9UKM9 1-306), for which the binding result in assay [3] is listed as “binds”.

With “Adenovirus serotype 5 DBP (from UniProt P03265 1-529)”, the binding result in assay [3], in assay [1] and in assay [2] was “no binding” throughout.
